Consider 15 targets from the supplement of paper PMC10849652.

Sequences of proteins named here, by UniProt entry; tags and fusion partners are left off. A change or cut given only in a name is not applied to a line headed by its entry.
UniProt P49642: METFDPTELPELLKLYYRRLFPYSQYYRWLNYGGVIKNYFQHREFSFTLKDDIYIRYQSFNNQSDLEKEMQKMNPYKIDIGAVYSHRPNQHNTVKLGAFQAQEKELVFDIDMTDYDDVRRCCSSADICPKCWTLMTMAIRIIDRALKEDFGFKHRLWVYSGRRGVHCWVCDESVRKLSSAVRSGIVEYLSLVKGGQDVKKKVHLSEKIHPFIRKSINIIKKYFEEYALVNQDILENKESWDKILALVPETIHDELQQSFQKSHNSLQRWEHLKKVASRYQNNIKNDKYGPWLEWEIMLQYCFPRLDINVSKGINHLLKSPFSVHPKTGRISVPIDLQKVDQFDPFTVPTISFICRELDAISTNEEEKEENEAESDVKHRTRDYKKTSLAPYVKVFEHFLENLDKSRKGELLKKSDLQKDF
UniProt Q9ULR3: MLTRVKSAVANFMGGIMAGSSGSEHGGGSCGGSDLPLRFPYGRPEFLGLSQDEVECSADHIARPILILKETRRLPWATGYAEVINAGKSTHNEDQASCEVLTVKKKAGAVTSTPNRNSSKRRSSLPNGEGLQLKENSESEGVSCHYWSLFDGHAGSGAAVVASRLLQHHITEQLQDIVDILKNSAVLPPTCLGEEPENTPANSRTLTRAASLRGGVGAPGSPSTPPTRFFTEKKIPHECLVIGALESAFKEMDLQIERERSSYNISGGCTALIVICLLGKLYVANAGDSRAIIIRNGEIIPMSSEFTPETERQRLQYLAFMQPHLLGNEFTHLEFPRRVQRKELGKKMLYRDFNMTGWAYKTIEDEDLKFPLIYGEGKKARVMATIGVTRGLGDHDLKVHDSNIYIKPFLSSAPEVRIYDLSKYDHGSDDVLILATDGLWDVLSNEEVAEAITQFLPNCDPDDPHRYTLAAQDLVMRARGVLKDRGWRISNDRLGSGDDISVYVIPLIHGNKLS
UniProt P41236: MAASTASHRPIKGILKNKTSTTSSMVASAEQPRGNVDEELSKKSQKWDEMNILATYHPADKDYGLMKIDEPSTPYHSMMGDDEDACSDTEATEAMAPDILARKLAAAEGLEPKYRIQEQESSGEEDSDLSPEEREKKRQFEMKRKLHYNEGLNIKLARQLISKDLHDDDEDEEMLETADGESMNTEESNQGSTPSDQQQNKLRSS
UniProt P32119: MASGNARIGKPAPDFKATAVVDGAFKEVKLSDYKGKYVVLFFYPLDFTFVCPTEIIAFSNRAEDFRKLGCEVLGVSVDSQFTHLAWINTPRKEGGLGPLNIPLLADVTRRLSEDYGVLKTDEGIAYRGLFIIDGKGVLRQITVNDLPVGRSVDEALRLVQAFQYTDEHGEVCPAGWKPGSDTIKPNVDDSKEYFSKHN
UniProt O43172: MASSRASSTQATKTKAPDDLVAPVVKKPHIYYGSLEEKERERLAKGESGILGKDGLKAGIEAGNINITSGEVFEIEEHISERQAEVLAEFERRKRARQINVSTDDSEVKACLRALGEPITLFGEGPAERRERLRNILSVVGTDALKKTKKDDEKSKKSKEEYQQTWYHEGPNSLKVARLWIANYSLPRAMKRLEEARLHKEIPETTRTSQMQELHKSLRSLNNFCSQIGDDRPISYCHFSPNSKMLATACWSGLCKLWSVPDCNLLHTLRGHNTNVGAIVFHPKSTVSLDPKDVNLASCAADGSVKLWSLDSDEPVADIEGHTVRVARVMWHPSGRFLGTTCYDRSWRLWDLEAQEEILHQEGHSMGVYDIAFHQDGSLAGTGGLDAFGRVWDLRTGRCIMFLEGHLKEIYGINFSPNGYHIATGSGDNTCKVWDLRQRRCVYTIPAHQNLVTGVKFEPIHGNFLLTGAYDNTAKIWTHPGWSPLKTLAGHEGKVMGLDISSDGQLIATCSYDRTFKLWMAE
UniProt Q96QC0: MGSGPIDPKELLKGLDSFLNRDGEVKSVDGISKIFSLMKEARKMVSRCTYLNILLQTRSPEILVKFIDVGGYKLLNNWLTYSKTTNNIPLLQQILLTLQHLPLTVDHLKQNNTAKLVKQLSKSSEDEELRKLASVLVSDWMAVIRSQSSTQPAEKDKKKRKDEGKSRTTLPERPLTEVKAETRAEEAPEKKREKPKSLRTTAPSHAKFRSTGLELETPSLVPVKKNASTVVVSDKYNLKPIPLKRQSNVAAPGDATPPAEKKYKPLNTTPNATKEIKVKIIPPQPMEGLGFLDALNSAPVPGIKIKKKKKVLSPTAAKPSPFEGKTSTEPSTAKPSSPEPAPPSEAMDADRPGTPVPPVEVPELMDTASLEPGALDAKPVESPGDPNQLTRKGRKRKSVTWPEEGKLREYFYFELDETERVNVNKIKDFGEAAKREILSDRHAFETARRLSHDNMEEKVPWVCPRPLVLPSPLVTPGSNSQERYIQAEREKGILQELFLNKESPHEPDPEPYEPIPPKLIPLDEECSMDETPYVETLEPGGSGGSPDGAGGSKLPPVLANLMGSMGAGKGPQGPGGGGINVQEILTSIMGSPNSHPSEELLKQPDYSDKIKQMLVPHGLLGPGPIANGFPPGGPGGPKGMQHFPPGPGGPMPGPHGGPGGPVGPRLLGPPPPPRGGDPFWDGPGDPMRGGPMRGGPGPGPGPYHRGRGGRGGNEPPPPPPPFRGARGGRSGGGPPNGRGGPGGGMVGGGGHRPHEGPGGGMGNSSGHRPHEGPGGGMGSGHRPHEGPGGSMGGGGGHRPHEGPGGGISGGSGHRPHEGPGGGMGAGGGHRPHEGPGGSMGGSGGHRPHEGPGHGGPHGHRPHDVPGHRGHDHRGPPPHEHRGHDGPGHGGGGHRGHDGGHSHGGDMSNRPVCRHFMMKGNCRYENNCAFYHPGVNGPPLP
UniProt P31323, whole entry, looked up: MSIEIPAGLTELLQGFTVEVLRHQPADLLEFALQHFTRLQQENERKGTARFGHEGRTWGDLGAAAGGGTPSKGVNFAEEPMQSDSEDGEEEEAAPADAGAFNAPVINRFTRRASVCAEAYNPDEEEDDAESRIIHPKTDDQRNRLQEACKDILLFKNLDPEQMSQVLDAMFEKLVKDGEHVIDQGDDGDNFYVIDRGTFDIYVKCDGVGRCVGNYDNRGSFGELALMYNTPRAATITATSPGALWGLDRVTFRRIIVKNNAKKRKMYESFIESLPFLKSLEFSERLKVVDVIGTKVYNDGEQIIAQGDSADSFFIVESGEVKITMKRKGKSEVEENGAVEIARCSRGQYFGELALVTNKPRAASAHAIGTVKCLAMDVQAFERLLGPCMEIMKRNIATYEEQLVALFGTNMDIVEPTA
UniProt Q9Y478: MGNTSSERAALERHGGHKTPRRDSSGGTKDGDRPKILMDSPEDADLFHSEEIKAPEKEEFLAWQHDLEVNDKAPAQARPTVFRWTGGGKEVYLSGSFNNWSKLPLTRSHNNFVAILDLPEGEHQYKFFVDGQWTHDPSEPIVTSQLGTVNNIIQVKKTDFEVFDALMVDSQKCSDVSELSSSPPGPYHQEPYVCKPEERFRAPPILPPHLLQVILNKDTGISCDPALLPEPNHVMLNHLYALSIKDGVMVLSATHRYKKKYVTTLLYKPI
UniProt P30154, whole entry, looked up: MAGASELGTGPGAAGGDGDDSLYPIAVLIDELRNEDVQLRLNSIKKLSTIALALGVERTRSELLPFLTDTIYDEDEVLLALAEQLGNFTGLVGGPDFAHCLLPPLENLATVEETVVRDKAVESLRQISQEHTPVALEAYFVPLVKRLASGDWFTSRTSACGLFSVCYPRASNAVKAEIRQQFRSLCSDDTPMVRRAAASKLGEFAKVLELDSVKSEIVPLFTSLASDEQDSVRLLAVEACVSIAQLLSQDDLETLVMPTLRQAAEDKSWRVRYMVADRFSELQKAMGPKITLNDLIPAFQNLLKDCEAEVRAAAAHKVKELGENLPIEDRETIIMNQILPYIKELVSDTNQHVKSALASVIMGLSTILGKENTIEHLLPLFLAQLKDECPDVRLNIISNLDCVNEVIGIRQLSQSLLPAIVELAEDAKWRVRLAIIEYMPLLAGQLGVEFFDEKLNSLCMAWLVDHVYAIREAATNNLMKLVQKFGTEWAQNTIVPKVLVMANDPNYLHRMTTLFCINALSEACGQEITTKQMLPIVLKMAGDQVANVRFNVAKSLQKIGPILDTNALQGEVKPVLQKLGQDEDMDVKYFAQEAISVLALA
UniProt P48454, whole entry, looked up: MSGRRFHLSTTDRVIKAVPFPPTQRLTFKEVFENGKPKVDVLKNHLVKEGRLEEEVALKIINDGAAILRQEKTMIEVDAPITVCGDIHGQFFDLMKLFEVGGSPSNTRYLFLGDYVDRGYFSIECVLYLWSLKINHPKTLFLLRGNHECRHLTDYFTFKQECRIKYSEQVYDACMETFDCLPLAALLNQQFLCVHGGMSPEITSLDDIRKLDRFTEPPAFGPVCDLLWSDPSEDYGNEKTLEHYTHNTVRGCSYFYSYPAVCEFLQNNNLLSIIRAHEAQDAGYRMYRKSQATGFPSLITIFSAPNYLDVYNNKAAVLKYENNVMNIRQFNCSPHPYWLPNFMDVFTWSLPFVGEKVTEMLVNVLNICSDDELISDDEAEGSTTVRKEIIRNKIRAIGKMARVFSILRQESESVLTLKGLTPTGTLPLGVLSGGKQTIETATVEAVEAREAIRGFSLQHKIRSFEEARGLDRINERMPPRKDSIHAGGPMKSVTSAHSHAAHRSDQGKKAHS
UniProt P30153, whole entry, looked up: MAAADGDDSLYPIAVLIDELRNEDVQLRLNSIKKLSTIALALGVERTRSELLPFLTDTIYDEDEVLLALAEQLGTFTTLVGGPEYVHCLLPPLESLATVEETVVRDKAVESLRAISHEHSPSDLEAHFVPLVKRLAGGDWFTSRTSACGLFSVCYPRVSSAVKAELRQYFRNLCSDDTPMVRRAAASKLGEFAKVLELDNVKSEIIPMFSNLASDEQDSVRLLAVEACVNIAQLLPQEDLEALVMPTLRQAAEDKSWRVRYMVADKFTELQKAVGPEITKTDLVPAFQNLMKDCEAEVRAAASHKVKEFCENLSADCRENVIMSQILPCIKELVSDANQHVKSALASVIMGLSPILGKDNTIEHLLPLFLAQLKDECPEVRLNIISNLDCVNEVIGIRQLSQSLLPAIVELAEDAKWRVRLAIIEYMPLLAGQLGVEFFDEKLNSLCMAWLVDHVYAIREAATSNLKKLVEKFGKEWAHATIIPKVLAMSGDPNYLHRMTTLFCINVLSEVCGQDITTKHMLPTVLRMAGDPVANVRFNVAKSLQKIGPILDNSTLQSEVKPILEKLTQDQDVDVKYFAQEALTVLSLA
UniProt P53041: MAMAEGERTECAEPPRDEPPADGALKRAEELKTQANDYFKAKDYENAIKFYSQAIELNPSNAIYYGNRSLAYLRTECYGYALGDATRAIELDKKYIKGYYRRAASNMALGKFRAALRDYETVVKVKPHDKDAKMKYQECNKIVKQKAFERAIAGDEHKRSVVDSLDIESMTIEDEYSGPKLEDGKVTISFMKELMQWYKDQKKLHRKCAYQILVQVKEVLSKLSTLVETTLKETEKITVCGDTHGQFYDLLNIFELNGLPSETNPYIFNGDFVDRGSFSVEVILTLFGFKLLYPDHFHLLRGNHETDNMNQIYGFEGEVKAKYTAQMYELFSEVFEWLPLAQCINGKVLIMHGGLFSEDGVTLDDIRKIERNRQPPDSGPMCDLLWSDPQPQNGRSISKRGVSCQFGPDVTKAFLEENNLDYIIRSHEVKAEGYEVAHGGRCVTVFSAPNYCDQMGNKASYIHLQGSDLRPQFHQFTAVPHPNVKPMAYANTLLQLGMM
UniProt Q13362, whole entry, looked up: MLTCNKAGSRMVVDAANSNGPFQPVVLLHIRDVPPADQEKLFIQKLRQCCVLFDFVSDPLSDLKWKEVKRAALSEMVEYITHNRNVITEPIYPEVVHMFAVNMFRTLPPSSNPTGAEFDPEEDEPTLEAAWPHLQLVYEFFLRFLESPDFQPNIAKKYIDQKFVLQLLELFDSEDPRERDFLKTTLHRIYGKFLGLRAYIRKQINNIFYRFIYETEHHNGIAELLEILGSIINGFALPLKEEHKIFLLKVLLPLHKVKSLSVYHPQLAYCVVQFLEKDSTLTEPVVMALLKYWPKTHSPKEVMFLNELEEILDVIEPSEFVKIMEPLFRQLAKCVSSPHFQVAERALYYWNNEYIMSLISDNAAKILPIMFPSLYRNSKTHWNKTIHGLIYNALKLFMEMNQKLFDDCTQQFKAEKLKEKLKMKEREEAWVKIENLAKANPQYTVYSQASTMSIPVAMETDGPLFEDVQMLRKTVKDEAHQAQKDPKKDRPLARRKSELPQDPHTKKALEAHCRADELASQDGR

Assay in all cases: log2 fold change, soluble protein after heating vs DMSO (PISA); higher = thermal stabilisation; K562 cells, 10 uM, 30 min; active = over 0.2 and 3.5 SD of the protein, either way, in both replicates (recomputed)
Compound in assay [1]: NC(=O)Nc1cc(-c2cccc(F)c2)sc1C(=O)N[C@H]1CCCNC1
In short, it runs like this:
(§1)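 Quantification of soluble protein used TMTpro 16plex LC-MS/MS, with channel sums equalised. Samples were the supernatant after 21,000xg for 90 min of pooled aliquots from K562 cells (2×10^6 cells/mL) treated with 10 μM compound for 30 min, heated for 3 min over 48°C-58°C, and extracted in PBS with 0.5% NP-40 at 4°C. Values, from duplicates, describe thermal stability against control samples on a log2 fold-change scale.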

Compound in assay [2]: NC(=O)c1cnc(N[C@@H]2CCCC[C@@H]2N)nc1Nc1cccc(-n2nccn2)c1
In a few lines: as §1

Compound in assay [3]: NC1(c2ccc(-c3nc4ccn5c(=O)[nH]nc5c4cc3-c3ccccc3)cc2)CCC1
In short, it runs like this:
as §1

Compound in assay [4]: NCC(=O)Nc1ccc(-n2nc(C(F)(F)F)cc2-c2ccc3c(ccc4ccccc43)c2)cc1
In a few lines: as §1

Compound in another assay: Nc1ccccc1NC(=O)c1ccc(CNC(=O)OCc2cccnc2)cc1 [entinostat]
In a few lines:
as §1

Compound in another assay: O=C(CCCCCCC(=O)Nc1ccccc1)NO [vorinostat]
In short, it runs like this: as §1

Compound in a further assay: O=C(CCCCCCNC(=O)c1cnc(N(c2ccccc2)c2ccccc2Cl)nc1)NO [citarinostat]
In short, it runs like this: as §1

Compound in another assay: O=C(O)c1ccc2c(c1)nc(Nc1cccc(Cl)c1)c1ccncc12 [silmitasertib]
In short, it runs like this: as §1

Compound in assay [5]: O=C1NC(=O)C(c2cnc3ccccn23)=C1c1cn2c3c(cc(F)cc13)CN(C(=O)N1CCCCC1)CC2
In a few lines:
as §1

Compound in assay [6]: c1cc(OCCN2CCCCC2)cc(-c2n[nH]c3ccc(-c4nnc[nH]4)cc23)c1
In a few lines:
as §1

The other results are listed elsewhere or left out.

Turning to PRIM1 (UniProt P49642), the log2 fold change in [1] was inactive: -0.008; in assay [2], inactive: -0.016; in assay [3] it was inactive: -0.093; in assay [4] it was inactive: -0.056; in the assay with entinostat, inactive: 0.041; with vorinostat it was inactive: 0.065. Besides, the log2 fold change is inactive: 0.063 in the assay with citarinostat, inactive: 0.089 in the assay with silmitasertib, inactive: 0.023 in assay [5] and inactive: -0.037 in assay [6].
With PPM1H (UniProt Q9ULR3), the log2 fold change in assay [1] was inactive: -0.019; in [2], inactive: 0.018; in [3], inactive: -0.005; in assay [4], inactive: 0.011; in the assay with entinostat, inactive: -0.053; with vorinostat it was inactive: -0.002. Further, the log2 fold change was inactive: 0.028 with citarinostat, inactive: 0.007 in the assay with silmitasertib, inactive: -0.089 in assay [5] and inactive: -0.025 in assay [6].
As for PPP1R2 (UniProt P41236), the log2 fold change in [1] was inactive: 0.028; in assay [2] it was inactive: 0.009; in assay [3] it was inactive: 0.054; in assay [4], inactive: 0.006; in the assay with entinostat, inactive: 0; with vorinostat, inactive: -0.049. In addition, the log2 fold change was inactive: -0.009 with citarinostat, inactive: -0.013 with silmitasertib, inactive: -0.044 in [5] and inactive: -0.032 in assay [6].
As for PRDX2 (UniProt P32119), the log2 fold change in assay [1] was inactive: -0.028; in [2], inactive: -0.069; in [3], inactive: 0.001; in assay [4], inactive: -0.05; with entinostat, inactive: -0.001; in the assay with vorinostat, inactive: -0.01. The log2 fold change in the assay with citarinostat was inactive: 0.036; with silmitasertib, inactive: -0.029; in assay [5] it was inactive: -0.082; in assay [6] it was inactive: -0.01.
On to PRPF4 (UniProt O43172), for which the log2 fold change was inactive: 0.001 in [1]; inactive: -0.035 in [2]; inactive: -0.073 in assay [3]; inactive: -0.009 in assay [4]; inactive: 0.047 with entinostat; inactive: 0.027 in the assay with vorinostat. In addition, the log2 fold change in the assay with citarinostat is inactive: 0.046; in the assay with silmitasertib, inactive: 0.006; in [5], inactive: -0.065; in assay [6] it was inactive: -0.065.
For PPP1R10 (UniProt Q96QC0), the log2 fold change in [1] is inactive: 0.166; in assay [2], inactive: 0.065; in assay [3], inactive: 0.174; in assay [4], inactive: 0.107; with entinostat, inactive: -0.059; with vorinostat, inactive: -0.055. In addition, the log2 fold change with citarinostat is inactive: -0.025; with silmitasertib, inactive: 0.2; in [5], inactive: 0.377; in assay [6] it was inactive: -0.096.
For PPP3CB isoform 4 (UniProt P16298), the log2 fold change was inactive: 0.046 in assay [1]; inactive: -0.109 in assay [2]; inactive: -0.097 in assay [3]; inactive: -0.035 in assay [4]; inactive: -0.003 with entinostat; inactive: 0.011 in the assay with vorinostat. The log2 fold change was inactive: 0.017 with citarinostat, inactive: 0.024 with silmitasertib, inactive: -0.124 in [5] and inactive: -0.03 in assay [6].
For PRKAR2B (UniProt P31323), the log2 fold change in assay [1] is active: -0.964; in assay [2], inactive: -0.152; in assay [3], inactive: -0.223; in [4], inactive: 0.016; with entinostat it was inactive: 0.027; with vorinostat, inactive: 0.112. The log2 fold change was inactive: 0.078 with citarinostat, inactive: 0.008 in the assay with silmitasertib, inactive: -0.003 in assay [5] and inactive: -0.013 in assay [6].
For PRG4 (UniProt Q92954), the log2 fold change in [1] was inactive: -0.168; in [2] it was inactive: -0.113; in assay [3] it was inactive: -0.16; in assay [4] it was inactive: -0.068; with entinostat, inactive: -0.156; with vorinostat, inactive: 0.201. Further, the log2 fold change is inactive: -0.015 in the assay with citarinostat, inactive: 0 with silmitasertib, inactive: -0.109 in [5] and inactive: -0.097 in assay [6].
On to PRKAB1 (UniProt Q9Y478), for which the log2 fold change was inactive: -0.015 in [1]; inactive: 0.186 in assay [2]; inactive: -0.015 in assay [3]; inactive: 0.035 in assay [4]; inactive: 0.056 with entinostat; inactive: 0.063 in the assay with vorinostat. In addition, the log2 fold change in the assay with citarinostat is inactive: 0.089; in the assay with silmitasertib, inactive: 0; in [5] it was inactive: -0.036; in assay [6], inactive: -0.067.
On to PPP2R1B isoform 2 (UniProt P30154), for which the log2 fold change in assay [1] was inactive: 0.075; in assay [2], inactive: -0.035; in [3], inactive: -0.121; in [4] it was inactive: 0.051; with entinostat, inactive: 0.017; with vorinostat, inactive: 0.07. Also, the log2 fold change with citarinostat is inactive: 0.048; in the assay with silmitasertib, inactive: 0.063; in [5] it was inactive: 0.038; in assay [6] it was inactive: -0.016.
As for PPP3CC isoform 3 (UniProt P48454), the log2 fold change was inactive: -0.036 in assay [1]; inactive: 0.01 in assay [2]; inactive: -0.067 in assay [3]; inactive: -0.043 in [4]; inactive: -0.007 with entinostat; inactive: -0.032 in the assay with vorinostat. For the same target, the log2 fold change with citarinostat is inactive: 0.056; with silmitasertib it was inactive: -0.015; in assay [5], inactive: -0.084; in [6], inactive: -0.026.
For PPP2R1A (UniProt P30153), the log2 fold change was inactive: -0.025 in assay [1]; inactive: -0.027 in assay [2]; inactive: -0.027 in assay [3]; inactive: -0.023 in assay [4]; inactive: -0.011 in the assay with entinostat; inactive: 0.009 with vorinostat. The log2 fold change with citarinostat is inactive: 0.034; with silmitasertib, inactive: -0.014; in [5], inactive: -0.041; in assay [6] it was inactive: -0.025.
For the target PPP5C (UniProt P53041), the log2 fold change in assay [1] was inactive: -0.067; in [2], inactive: -0.027; in assay [3] it was inactive: -0.003; in assay [4], inactive: -0.002; with entinostat, inactive: -0.031; with vorinostat it was inactive: -0.059. Further, the log2 fold change in the assay with citarinostat is inactive: 0.018; with silmitasertib, inactive: -0.001; in [5] it was inactive: -0.022; in assay [6], inactive: -0.006.
Turning to PPP2R5C isoform 5 (UniProt Q13362), the log2 fold change in [1] was inactive: 0.003; in assay [2] it was inactive: 0.011; in assay [3] it was inactive: -0.134; in [4], inactive: -0.027; with entinostat, inactive: 0.018; with vorinostat, inactive: -0.044. For the same target, the log2 fold change in the assay with citarinostat is inactive: 0.169; in the assay with silmitasertib it was inactive: -0.005; in assay [5], inactive: -0.053; in assay [6] it was inactive: -0.01.
